# Test results taken from PubChem BioAssay AID1508600 (Functional Genomics Laboratory (NCATS/FGL), 2020).
# The whole screen tested about 53,000 sequences, of which about 3,700 (7%) were called active.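 Rule for the calls: active = gene knockdowns whose robust z-score for IL-1 alpha signal is at least 2 or at most -2, so actives lie on both sides; inactive = the rest.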 The list shows a part of the results.
# Assay: Components of the Cytosolic LPS Sensing Pathway: Gene Identification via Genome-wide siRNA Screen;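 note: robust z of the log signal after scaling to non-targeting control siRNA wells of the plate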
# Conditions: RAW264.7 macrophages, IL-1a HTRF, actives lie on both sides, screened at 100 nM (by protocol), cells primed 5 h with Pam3CSK4 first
# Outline: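 IL-1a HTRF of supernatants after 24 hour LipidA transfection of Pam3CSK4-primed (5 hours) RAW264.7 cells, 48h post-siRNA transfection (100 nM). Scores: percent of plate negative-control median, then log-based robust z-score.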
row,Sequence,z-score
1,GGGAUGUGAUAGUUCAUAATT against Stil,inactive: -0.304
2,GGUUUCUACACAUUUAAGATT against Ptgdr2,inactive: 1.57
3,GCUACAACAAGACAAAGUCTT against Tada1,inactive: 1.84
4,GCACUUGUGCUUUCAAUAATT against Rhox1,inactive: -1.49
5,CCAGAAUGACGAUGCUGAATT against Ssrp1,inactive: 0.294
6,GGUUAUUCCACCUCUUGCCTT against Pacc1,inactive: -0.596
7,GGAGACCACUAGCUUCAAUTT against B430306N03Rik,inactive: 1.48
8,GAAAGGAAAGCUAGCCAUGTT against Gm5622,inactive: 0.614
9,CCCUAGAAUUCCAAAGAAATT against Sox7,inactive: 0.0464
10,GCAGAUCUAUCCUAGCCGGTT against Eif1,inactive: -0.4
11,GGCCCUCAAUACCUGUGGUTT against Olfr690,active: -3.13
12,GGAUCUCACAGUGAAGAAGTT against Krba1,inactive: 0.392
13,GGUGAAGAUGCAGACCUUUTT against Slc25a15,inactive: -0.479
14,GGAGGUGGAAUACUGCAUCTT against 4931406B18Rik,inactive: 0.644
15,CCUCUCCUAUUCCUAGUGUTT against Olfr183,inactive: -0.996
16,GGACAAAAGCAGCUUGAGUTT against Coa6,inactive: 0.963
17,AUGCACCAUGCCGUUGACUTT against Oxct2b,inactive: 0.422
18,GCAGUACCACUCUCUUUUUTT against Sap130,inactive: 1.02
19,GGAAAUCAUGAAGCUGAAATT against Clpp,inactive: -0.0221
20,GGACAUUGUUAAAGGCAUATT against Kpna2,inactive: 0.292
21,GGAUUCCUUACCAAAGAAGTT against Ccdc7b,inactive: -0.918
22,GCACUUUGACCUGAAUCUATT against Wdr46,inactive: 0.824

row,Sequence,z-score
1,GGACAACCCAGUCUCAAAATT against Mrpl43,inactive: 1.44
2,CCACAAAACCACACCAGUGTT against Olfr24,inactive: -0.39
3,GGAUAUUUUUGGCAGCCCUTT against Slco1b2,inactive: -1.67
4,CCUCAGUGCUUACUUUGAATT against Dusp3,inactive: -0.109
5,GGGAAGGUAAGGCAUAAGCTT against Mkx,inactive: -0.561
6,GGAAAUUUGCCAACAUACUTT against Acsm3,inactive: 1.42
7,GCCACUCUUAGUGCUAACUTT against Tctn3,inactive: -1.25
8,GGUGAUCAAUCCUCUAAUATT against Eid2,active: 2.61
9,GGCAAAGAGUGGUAAGAGUTT against Olfr1166,active: -2.72
10,GGAAGCCUUCACAAUCAUGTT against Myl2,inactive: -0.41
11,GCUACCUGCUCUAUACAUGTT against Crlf1,inactive: 1.03
12,GCCCAGUCUUGAUUAUCUATT against Atp6v0e2,inactive: -0.748
13,GGACCACAGAUGAAUUGGATT against Relb,inactive: -0.537
14,GGACAAUUACAACACUCAATT against Ablim3,inactive: -0.00526
15,GGAAGAAAAGAAGCUUUUGTT against Palmd,inactive: 0.343
16,GGCAAUUCUUGACAAGAAUTT against Rbms3,inactive: -0.903
17,GGGCUGGAAUUCUUUUGUGTT against Cwh43,inactive: 0.0804
18,GGGUGAGCAGUACAUUCAATT against Plekhg6,active: 2.73
19,CCGUUUCUGUAUGACCUGGTT against Rbbp7,inactive: -0.121
20,GGAGCUGGUGUUGAGUGAGTT against Slfnl1,inactive: -1.81
21,GCUGUAUCCUGUAGUGAGUTT against Spsb1,inactive: -0.221
22,GCAAUCCAAGCCAAACUCCTT against Usp24,inactive: 0.163

# An excerpt of these results, with tabs.
row	Sequence	z-score
18	GCAGUACCACUCUCUUUUUTT against Sap130	inactive: 1.02
19	GGAAAUCAUGAAGCUGAAATT against Clpp	inactive: -0.0221
20	GGACAUUGUUAAAGGCAUATT against Kpna2	inactive: 0.292
21	GGAUUCCUUACCAAAGAAGTT against Ccdc7b	inactive: -0.918
22	GCACUUUGACCUGAAUCUATT against Wdr46	inactive: 0.824
1	GGACAACCCAGUCUCAAAATT against Mrpl43	inactive: 1.44

# Next records:

row,Sequence,z-score
1,GAUGGUCAUCCUUCCUUUATT against Olfr341,inactive: -0.737
2,GGUUGGGCAAACCUGUCAATT against Olfr1121,inactive: 0.62
3,CGAUCUCAGAGGAUAAGUUTT against Nxf3,inactive: -0.48
4,CGAGGUGGCUACAGAUCAATT against Tspyl2,inactive: 0.512
5,GCCCACAUCAGCUAUCGUUTT against Atf2,inactive: -0.787
6,GGCCAGAUUAACACUUACUTT against Eif3h,inactive: 0.798
7,GGACCACUCGCUUUUGGGUTT against Irf2bpl,inactive: 0.938
8,CGUUACACGUACUUCAAGGTT against Wnt3a,inactive: 0.252
9,CGGUGUGAUGCGGAUUUUUTT against Cacna2d2,inactive: -0.112
10,GGUUGUGACUACACUAUGGTT against Zfp456,inactive: -1.7
11,CCUGUGAAUACUUUCACUCTT against Bok,inactive: 0.115
12,CCGUGGUAAUGUGAACUAUTT against Cln6,inactive: 0.0977
13,CCUGUUGAAGUUUCUGGAATT against Tmbim4,inactive: 0.744
14,GCCAUUUGUCCACAAAAUGTT against Ces2g,active: -2.06
15,GACUAUGUGGUCUACUCGUTT against Drd4,active: 2.86
16,GCACCUGUGGAGUUCUCUATT against Trp73,inactive: 0.742
17,CCUUCUUUUACCGUCUCAATT against Gpr31b,inactive: -0.69
18,GGCUGUGCAAGCAAAACCUTT against Mad1l1,inactive: -1.43
19,GGUGCAGAACAAUUCGGUUTT against Tnfsf4,inactive: 0.612
20,GCCAGCAUAAAUAUACUUUTT against Apol10a,inactive: -0.0597
21,CCAACGAACCUUAUUUCUUTT against Lman2,inactive: 0.318
22,GCUAUUCUUUUUCUGCUUUTT against Olfr893,inactive: -0.118

# As a working copy, some entries already given:
row,Sequence,z-score
4,CGAGGUGGCUACAGAUCAATT against Tspyl2,inactive: 0.512
5,GCCCACAUCAGCUAUCGUUTT against Atf2,inactive: -0.787

# Later entries

row,Sequence,z-score
1,GCUGUGUAUAAACAUCCUATT against Pigp,inactive: 1.76
2,GGAGCAGUGGGAAAUUCCATT against Ice2,inactive: -0.0391
3,GGCCUUCUUUGAUGUGAAGTT against Sbf1,inactive: 0.108
4,CAACACCAUUCCUAAAUCATT against Cabs1,inactive: -1.33
5,GCUUAGGGUGUUGAAAGGCTT against AI854703,inactive: -0.393
6,GGAGGAAGCUGUCAAGGAUTT against Ano1,inactive: -0.585
7,GGACAUGGAGACUCUGAAGTT against Ptov1,inactive: 1.46
8,GCCUUACUUCGGAGUGCUATT against Olfr606,active: -4.78
9,CCAUCCAUCUAUCUUCACCTT against Nanos2,inactive: -0.964
10,GGGACAAGGCAGAAAUUUUTT against Tcf15,inactive: 0.968
11,GGAAAGUUGGACCUUCUGATT against Adamts6,active: 2.35
12,CGCAGAAAGUUGUUAACCCTT against Svop,inactive: 0.0514
13,GGGCUCACUCCAAAUCUCUTT against Macir,inactive: -0.0514
14,GCCCAUAUCUUCUUCACUGTT against Stxbp2,inactive: -0.169
15,GGAUGAGUUUUUCUAUAGCTT against Cyp4f39,inactive: -0.138
16,GGAUGUGGUUCGAGUAUGGTT against Pou5f1,inactive: 1.79
17,GACAAAGAGUCCCUGAACCTT against Emp3,inactive: 0.514
18,GGAGAAUAAAACUUCCAGATT against Urod,inactive: -0.436
19,GCGGAUUCAAAACCUUAGUTT against Drp2,inactive: 0.299
20,GGGCCUCCUGUAAACAUCCTT against D630039A03Rik,inactive: 0.884
21,GAAAAUAGAUAAAAGGACCTT against Defb6,inactive: 1.11
22,GCAACUUUGUAGCUCCUUCTT against Srebf2,inactive: 0.118

row,Sequence,z-score
1,CCUCAAUUAUACCAAGAUUTT against Mapre3,inactive: -1.28
2,GACAAUGCGUGCAACGAUATT against Grcc10,inactive: 1.13
3,CCGUACCGAAUCCUUUAUCTT against Tbc1d9,inactive: 0.564
4,CGAUUUUCUACAGAAAUACTT against Smpd3,inactive: 1.93
5,GCAUAUCGUUUUAUGGAUGTT against Olfr1043,inactive: 0.138
6,CCUAAUUUCCCAGCACUUUTT against Acsf2,inactive: -0.187
7,CCAAAAAUUGUGGCUUUUGTT against Alas2,inactive: 1.89
8,GGCCUGACUUUUUGUCUUATT against Klhl15,inactive: 1.09
9,CCAUUCCUACAGCAUGCGUTT against Slc27a1,inactive: 0.523
10,GGGACUUUGUAAACAGUUUTT against Eci2,inactive: 1.61
11,CCGCUAAGUUGGUAGACUCTT against Grp,inactive: 0.245
12,GGCCCUGUGCACUAAAGUGTT against Bax,inactive: 0.28
13,GCAGUUAUCCGUAUUUAAATT against Ctnnbl1,inactive: 1.18
14,GGGCAAAUGUUCUCAAAAATT against Dlst,inactive: 0.814
15,GGGUGUUUACUAACUCUGGTT against Hdac3,inactive: -1.94
16,GGGUAUUCUGUGUGUUACUTT against Hsd3b1,active: 2.06
17,GCAUAUCGUUCAAGUUUACTT against Sorcs1,inactive: 1.85
18,GGUUCACAGUCCAAGCUUCTT against Sytl3,inactive: 0.677
19,GGAUACUACAUGAAUCUUATT against Pip5k1a,inactive: -0.244
